Experimental data reported in PubChem BioAssay AID487 (Columbia University Molecular Screening Center, 2006).
The other results are listed elsewhere or left out.

Experiment: inhibitors of E-selectin induction by TNFa, primary screen, imaging, HUVEC, immunofluorescence, MLSMR starter and 10KST1 sets (AID 487);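 note: 100% = median nuclei count of all wells on the same plate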
Conditions: HUVEC TNFalpha-induced E-selectin immunofluorescence imaging; measured here: cell number, toxicity; at 2 µM

Compound | nuclei count [%]
Fc1ccccc1NC1CCN(Cc2ccccc2)CC1 | 115
